The list shows a part of the results. Shown are side measurements of this screen, not its main read-out; they come without a call. The list favours compounds with an active or inconclusive main result. Potencies come from curve fits of mixed quality, noted in brackets.
Experiment: qHTS Assay for Lipid Storage Modulators in Drosophila S3 Cells;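 as to cell number change: cells counted by Cell Tracker Red CMTPX staining in the red channel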
Details: BODIPY lipid droplet fluorescence, 18-24 h; for cell number change: measured here: cell count max response, cells fed with added oleic acid
Summary of the method: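 Drosophila S3 cells loaded with oleic acid (400 uM, as added) and compounds at several concentrations; lipid droplets imaged by 488-nm laser-scanning cytometry, 500–530 nm intensity and object ratio to cell channel. Percent activity normalized to 20 uM Triacsin C.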

[1] = measured here: lipid fluorescence (Fed channel) AC50, cells fed with added oleic acid
[2] = measured here: cell number channel AC50, cells fed with added oleic acid

Row | Compound | cell number change [%] | AC50 [1] | AC50 [2]
1 | O=C(CCC(=O)N1CCOc2ccccc21)Nc1ccccc1Br | -6.05 | 0.00461 µM [rising, full curve, poor fit] | 
2 | S=c1[nH]nc(-c2ccncc2)n1Cc1ccccc1 | -15.3 |  | 
3 | CC(=O)Nc1ccc(NC(=O)CC(c2ccccc2)c2ccccc2)cc1 | -18.4 |  | 0.00461 µM [falling, full curve, poor fit]
4 | Cc1sc2ncn(CC(=O)NCC3COc4ccccc4O3)c(=O)c2c1S(=O)(=O)N1CCOCC1 (stereo unspecified) | 43.7 | 2.59 µM [falling, partial curve] | 2.31 µM [falling, partial curve]
5 | COc1ccc(C(=O)NC(C(=O)NCCc2ccc3c(c2)OCCO3)C(C)C)cc1 (stereo unspecified) |  | 3.26 µM [rising, single point] | 
6 | CC(C)(C)OC(=O)NCc1ccc(CNC(=O)c2nc[nH]c2C(=O)N2CCN(c3ccccc3)CC2)cc1 | -37.5 | 4.11 µM [falling, partial curve] | 20.6 µM [falling, partial curve]
7 | COc1ccc(Cc2nc3ccc(C(=O)NCCc4ccncc4)cc3o2)cc1OC | -54.2 | 9.2 µM [falling, partial curve, poor fit] | 29.1 µM [falling, single point]
8 | COc1ccc(NC(=O)/C(N=Nc2cc(S(=O)(=O)Nc3ccc(OC)cc3)ccc2OC)=C(\C)O)cc1 | -21.5 |  | 
9 | Cc1cc(NC(=O)CSc2nc(C3CC3)nc3sc(C)c(C)c23)no1 | -18.4 | 0.58 µM [rising, single point] | 0.259 µM [rising, partial curve, poor fit]
10 | Cc1cccc(Cn2c(C(=O)OC(C)C)cc3c2ccn3C)c1 | -42.7 |  | 29.1 µM [falling, single point]
11 | Cc1cc(NC(=O)CCC(=O)N(CCC(C)C)CC(=O)NCC2CCCO2)no1 (stereo unspecified) |  |  | 0.517 µM [falling, partial curve]
12 | Cc1ccc(S(=O)(=O)ON=C2CCN(S(=O)(=O)c3ccccc3)CC2)cc1 | 14.5 | 20.6 µM [rising, partial curve, poor fit] | 
13 | NC(=O)CSc1nnc(NC(=O)c2ccc(Br)o2)s1 |  | 0.116 µM [rising, single point] | 
14 | COc1ccc(N2CCN(c3nc(NC(C)(C)C)nc(N4CCCCC4)n3)CC2)cc1 | -128 | 29.1 µM [falling, single point] | 
15 | O=C(CSc1nnc2c(n1)[nH]c1ccccc12)Nc1ccc2c(c1)OCO2 | 35.6 |  | 0.231 µM [rising, full curve]
16 | Nc1nc(-c2ccccc2)[nH]c(=O)c1N=O | 9.04 |  | 
17 | C/C(=N/NC(=O)CNC(=O)/C=C/c1ccccc1)c1ccco1 | -20.3 | 20.6 µM [falling, single point] | 
18 | O=c1c(-c2nc3ccccc3s2)cccn1Cc1ccc(Cl)cc1 | 15.2 |  | 
19 | CC(C)N(Cc1ccccc1)C(=O)COC(=O)c1ccc(O)cc1 | -15 | 1.64 µM [falling, partial curve] | 
20 | O=C(CSc1nnc(-c2cnccn2)n1Cc1ccco1)Nc1ccc(Br)cc1 | 49.2 |  | 23.1 µM [rising, single point]
21 | CCOC(=O)C1(C)/C(=N/Nc2cccc(Cl)c2)C(=O)C(=O)N1c1ccccc1 (stereo unspecified) | 12 | 0.58 µM [rising, single point] | 
22 | OC(CN1CCOCC1)C12CC3CC(CC(C3)C1)C2 (stereo unspecified) | -23.6 | 29.1 µM [falling, single point] | 
23 | C=CCNC(=O)c1ccccc1NC(=O)C1CCN(S(=O)(=O)c2ccc(SC)cc2)CC1 | -15.8 |  | 
24 | Cc1cc(C)cc(OCC(=O)N(C)CC(=O)Nc2ccc(N3CCOCC3)cc2)c1 | -11.3 |  | 
25 | C=CCn1c(SCC(=O)c2[nH]c(C)c(C(=O)OCC)c2C)nc2scc(-c3ccc(OC)c(OC)c3)c2c1=O | -17.6 |  | 3.66 µM [falling, single point]
26 | Cc1ccc(C(=O)c2oc3ccccc3c2N)cc1 | -42.2 | 14.6 µM [falling, partial curve] | 14.6 µM [falling, partial curve]
27 | COc1cc(OC)cc(C(=O)NC(=S)NNC(=O)[C@H]2C[C@@H]2c2ccccc2)c1 | 20.6 | 4.61 µM [rising, full curve, poor fit] | 
28 | CCN(CC)C(=O)C1(P(=O)(c2ccccc2)c2ccccc2)CCC1 | 10.3 | 1.64 µM [falling, partial curve] | 
29 | COc1ccc(Cc2nnc(SCC(=O)N(c3ccccc3)C(C)C)n(N)c2=O)cc1 | 66.7 |  | 8.2 µM [rising, partial curve, poor fit]
30 | O=C(NCc1ccccc1)C1CCCN(S(=O)(=O)c2cccc3nsnc23)C1 (stereo unspecified) | 25.8 | 0.058 µM [falling, full curve, poor fit] | 

Two of the compounds above, as tab-separated lines:
Row	Compound	cell number change [%]	AC50 [1]	AC50 [2]
27	COc1cc(OC)cc(C(=O)NC(=S)NNC(=O)[C@H]2C[C@@H]2c2ccccc2)c1	20.6	4.61 µM [rising, full curve, poor fit]	
28	CCN(CC)C(=O)C1(P(=O)(c2ccccc2)c2ccccc2)CCC1	10.3	1.64 µM [falling, partial curve]	

From PubChem BioAssay AID2685 (National Center for Advancing Translational Sciences (NCATS), 2010)
